System: rat ventricular cell
Assay: Uptake and mitochondrial co-localization of xanthohumol fluorescence with MitoTracker-Red
Assay type: cell-based
Conditions: 300 nM xanthohumol
Method: The weak fluorescence of xanthohumol (50-1000 μM) allowed its uptake and subcellular mitochondrial distribution (λex=405 nm) and co-localization with MitoTracker-Red (λex=568 nm) to be monitored at 0.2 Hz in dual channel recordings with a LEICA microscope (TIRF DMI6000 B, 63x oil-immersion objective; Leica Microsystems, Buffalo Grove, Ill.) equipped with an Andor iXon3 camera (512×512 pixels of 0.254×0.254 μm^2, Belfast, UK) and operating in the epifluorescence mode (FIG. 2).
After 6 minutes, the cellular fluorescence intensity produced by 300 and 100 nM xanthohumol was 130±14 (n=4) and 32±12 (n=2), respectively. In comparison, the cellular autofluorescence was 350±65 so that lower concentrations of xanthohumol were not reliably detected.

COc1cc(O)c(CC=C(C)C)c(O)c1C(=O)/C=C/c1ccc(O)cc1 [xanthohumol]
co-localization with mitochondrial marker MitoTracker-Red: high degree of co-localization
